In patent US20260185150:
For some of these results: A negative result means that nothing was seen under these conditions. For some of these results: Tags and fusion partners may be left off the protein sequences shown. For some of these results: For at least one entry, the source does not settle the construct or the ends of the probe.

What was measured:
[1] = target: Nt.BspQI (triple mutant of BspQI, top-strand nickase) (UniProt D2D3S6); test: enzyme reaction in vitro; settings: 3' phosphate, implies bottom strand nuclease activity, purified recombinant protein, label: target 5' quencher and internal fluorescein-T, folded or branched DNA, variant of Guide C + hairpin target
[2] = target: T1, Bst DNA polymerase (Bacillus stearothermophilus) (UniProt P52026); test: activity assay; settings: purified recombinant protein, label: target 5' quencher and internal fluorescein-T, folded or branched DNA
T1 sequence (looked up, limits assumed): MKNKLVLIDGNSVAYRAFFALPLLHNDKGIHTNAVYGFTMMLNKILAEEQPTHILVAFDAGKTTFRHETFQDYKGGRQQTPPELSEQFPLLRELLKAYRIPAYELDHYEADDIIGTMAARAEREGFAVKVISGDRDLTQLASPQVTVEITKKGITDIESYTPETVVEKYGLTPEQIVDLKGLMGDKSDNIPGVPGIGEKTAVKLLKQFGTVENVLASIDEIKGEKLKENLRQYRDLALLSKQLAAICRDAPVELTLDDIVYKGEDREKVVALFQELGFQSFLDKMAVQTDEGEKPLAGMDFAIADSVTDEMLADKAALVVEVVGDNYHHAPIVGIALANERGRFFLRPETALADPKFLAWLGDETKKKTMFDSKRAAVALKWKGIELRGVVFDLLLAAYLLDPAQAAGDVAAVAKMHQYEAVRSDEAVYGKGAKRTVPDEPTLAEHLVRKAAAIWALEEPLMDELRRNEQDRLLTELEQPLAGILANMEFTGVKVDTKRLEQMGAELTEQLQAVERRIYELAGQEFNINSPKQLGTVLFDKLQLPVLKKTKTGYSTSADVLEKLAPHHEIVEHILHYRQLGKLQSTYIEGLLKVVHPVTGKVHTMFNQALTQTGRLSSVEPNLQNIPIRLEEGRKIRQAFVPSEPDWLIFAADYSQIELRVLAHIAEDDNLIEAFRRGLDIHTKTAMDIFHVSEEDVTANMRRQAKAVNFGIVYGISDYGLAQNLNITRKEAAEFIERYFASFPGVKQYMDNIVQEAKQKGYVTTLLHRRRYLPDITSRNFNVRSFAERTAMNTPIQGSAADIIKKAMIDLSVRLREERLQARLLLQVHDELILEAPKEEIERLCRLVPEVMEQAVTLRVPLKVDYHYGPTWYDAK

[3] = 3' phosphate, extension blocked

For “GAAGAGCGATATCGCTCTTCAGCTGAGACTGCGCCT / ACCGGCGGTTAACCGCCGGTAGGCGCAGTCTCAGCTCGTGCT [Guide D + hairpin target]”, the “activity on this sequence” value [1] was “active”.

With “GAAGAGCGATATCGCTCTTCAGCTGAGACTGCGCCT / ACCGGCGGTTAACCGCCGGTAGGCGCAGTCTCAGCTCGTGCT [Guide E + hairpin target]” the “activity on this sequence” value ([1]; 2'-OMe on last 6 nt as printed TmGmCmGmCmCmU) was “active”.

“GACTCGATATCGAGTCAGCTGAGACTGCGCCT / ACCGGCGGTTAACCGCCGGTAGGCGCAGTCTCAGCTCGTGCT [Guide 1 (=Guide 11) all DNA + hairpin target]” was tested, and the “activity on this sequence” value ([2]; primer extension, fluorescence) was “active”.

With “GACTCGATATCGAGTCAGCTGAGACTGCGCCT / ACCGGCGGTTAACCGCCGGTAGGCGCAGTCTCAGCTCGTGCT [Guide 2 (=Guide 9) all DNA 3' phosphate + hairpin target]” the “activity on this sequence” value [2, 3] was “not active”.

With “GACTCGATATCGAGTCAGCTGAGACTGCGCCT / ACCGGCGGTTAACCGCCGGTAGGCGCAGTCTCAGCTCGTGCT [Guide 3 (=Guide 7) methoxy blockage + hairpin target]” the “activity on this sequence” value ([2]; 2'-OMe on last 5 nt (mCmGmCmCmU), extension blocked) was “not active”.

“GACTCGATATCGAGTCAGCTGAGACTGCGCCT / ACCGGCGGTTAACCGCCGGTAGGCGCAGTCTCAGCTCGTGCT [Guide 4 methoxy blockage 3' phosphate + hairpin target]” was tested, and the “activity on this sequence” value ([2]; 2'-OMe on last 5 nt (mCmGmCmCmU), 3' phosphate, extension blocked) was “not active”.

In the case of “GACTCGATATCGAGTCAGCTGAGACTGCGCCT / ACCGGCGGTTAACCGCCGGTAGGCGCAGTCTCAGCTCGTGCT [Guide 5 methoxy with terminal DNA base + hairpin target]”, the “activity on this sequence” value ([2]; 2'-OMe mCmGmCm before terminal DNA (printed mCmGmCmCT), primer extension, fluorescence) is reported as “active”.

With “GAGAGCATTACGAGTCAGCTGAGACTGCGCCT / ACCGGCGGTTAACCGCCGGTAGGCGCAGTCTCAGCTCGTGCT [Guide 6 5' mismatch 3' phosphate + hairpin target]” the “activity on this sequence” value [2, 3] was “not active”.

In the case of “GAGAGCATTACGAGTCAGCTGAGACTGCGCCT / ACCGGCGGTTAACCGCCGGTAGGCGCAGTCTCAGCTCGTGCT [Guide 8 5' mismatch + hairpin target]”, the “activity on this sequence” value ([2]; primer extension, fluorescence) is reported as “active”.

“GAGAGCATTACGAGTCAGCTGAGACTGCGCCT / ACCGGCGGTTAACCGCCGGTAGGCGCAGTCTCAGCTCGTGCT [Guide 10 methoxy with 5' mismatch + hairpin target]” was tested, and the “activity on this sequence” value ([2]; 2'-OMe on last 5 nt, extension blocked) was “not active”.
